These are yes or no findings as the source states them, for the method shown. In cells and extracts the contact can be indirect. Some binding calls cover weakened binding; strength is not graded here.

Amino acid sequences for entries named in this document (tags omitted).
UniProt Q9UHD9, whole entry: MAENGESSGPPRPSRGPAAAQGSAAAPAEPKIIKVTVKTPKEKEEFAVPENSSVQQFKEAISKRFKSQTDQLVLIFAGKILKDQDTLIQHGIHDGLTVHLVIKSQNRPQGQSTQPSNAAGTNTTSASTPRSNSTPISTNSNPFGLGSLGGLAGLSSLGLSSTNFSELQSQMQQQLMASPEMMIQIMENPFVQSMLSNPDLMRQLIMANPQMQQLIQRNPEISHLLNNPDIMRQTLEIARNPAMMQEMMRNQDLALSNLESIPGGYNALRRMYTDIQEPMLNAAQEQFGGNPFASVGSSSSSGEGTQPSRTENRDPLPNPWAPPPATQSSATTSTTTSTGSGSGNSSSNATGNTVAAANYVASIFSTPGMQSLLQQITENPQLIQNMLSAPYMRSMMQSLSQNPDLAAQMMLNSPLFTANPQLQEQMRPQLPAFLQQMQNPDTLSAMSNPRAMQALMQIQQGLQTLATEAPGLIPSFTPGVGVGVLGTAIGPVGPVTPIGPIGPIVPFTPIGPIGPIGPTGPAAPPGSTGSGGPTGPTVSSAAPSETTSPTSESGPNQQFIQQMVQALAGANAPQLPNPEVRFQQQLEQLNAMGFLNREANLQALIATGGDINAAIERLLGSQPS
UniProt A6ZKI3, whole entry: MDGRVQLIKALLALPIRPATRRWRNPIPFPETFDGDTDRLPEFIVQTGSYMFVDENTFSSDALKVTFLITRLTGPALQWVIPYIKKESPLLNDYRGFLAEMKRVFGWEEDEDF

Test [1] has as its target T1, PEG10 gag-pol (human (endogenous in HEK293 and HeLa)) (UniProt Q86TG7).
T1 sequence: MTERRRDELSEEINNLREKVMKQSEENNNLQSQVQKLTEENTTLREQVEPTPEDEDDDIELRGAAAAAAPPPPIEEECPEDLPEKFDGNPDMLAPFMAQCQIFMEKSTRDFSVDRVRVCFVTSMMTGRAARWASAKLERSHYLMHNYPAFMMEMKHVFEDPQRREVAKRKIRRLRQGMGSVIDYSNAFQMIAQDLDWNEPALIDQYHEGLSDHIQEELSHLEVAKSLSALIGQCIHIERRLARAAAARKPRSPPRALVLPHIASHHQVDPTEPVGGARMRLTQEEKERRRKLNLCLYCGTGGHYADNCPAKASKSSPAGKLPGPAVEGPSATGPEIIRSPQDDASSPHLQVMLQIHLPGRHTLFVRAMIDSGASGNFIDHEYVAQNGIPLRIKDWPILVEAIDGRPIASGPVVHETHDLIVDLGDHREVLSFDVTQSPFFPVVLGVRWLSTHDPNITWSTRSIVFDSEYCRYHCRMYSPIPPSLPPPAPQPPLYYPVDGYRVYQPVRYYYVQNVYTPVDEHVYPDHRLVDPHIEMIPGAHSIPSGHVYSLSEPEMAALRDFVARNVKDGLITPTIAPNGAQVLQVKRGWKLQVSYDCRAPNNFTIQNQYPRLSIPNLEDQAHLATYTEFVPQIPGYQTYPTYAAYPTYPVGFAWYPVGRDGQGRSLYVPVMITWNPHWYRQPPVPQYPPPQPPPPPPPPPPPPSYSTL
Briefly: co-IP.

The target of test [2] is UBQLN2 (human (endogenous in HEK293 and HeLa)) (UniProt Q9UHD9). Put plainly: co-IP.

Take “full-length (FL) HA-RTL8C (from UniProt A6ZKI3 1-113)”: the binding entry in test [1] and in test [2] was “binds” in each case.

Values taken from article doi:10.1101/2024.10.24.620053.
